Results published in publication PMC9246188.
These are yes or no findings as the source states them, for the method shown. In cells and extracts the contact can be indirect. Here binding means that the protein was enriched with, or labelled near, the bait; the list need not be complete.

B1: Rtn4/Nogo-A (protein, UniProt Q99P72-2 1-1162)
chain: MEDIDQSSLVSSSADSPPRPPPAFKYQFVTEPEDEEDEEDEEEEEDDEDLEELEVLERKPAAGLSAAPVPPAAAPLLDFSSDSVPPAPRGPLPAAPPTAPERQPSWERSPAASAPSLPPAAAVLPSKLPEDDEPPARPPAPAGASPLAEPAAPPSTPAAPKRRGSGSVDETLFALPAASEPVIPSSAEKIMDLKEQPGNTVSSGQEDFPSVLFETAASLPSLSPLSTVSFKEHGYLGNLSAVASTEGTIEETLNEASRELPERATNPFVNRESAEFSVLEYSEMGSSFNGSPKGESAMLVENTKEEVIVRSKDKEDLVCSAALHNPQESPATLTKVVKEDGVMSPEKTMDIFNEMKMSVVAPVREEYADFKPFEQAWEVKDTYEGSRDVLAARANMESKVDKKCFEDSLEQKGHGKDSESRNENASFPRTPELVKDGSRAYITCDSFSSATESTAANIFPVLEDHTSENKTDEKKIEERKAQIITEKTSPKTSNPFLVAIHDSEADYVTTDNLSKVTEAVVATMPEGLTPDLVQEACESELNEATGTKIAYETKVDLVQTSEAIQESIYPTAQLCPSFEEAEATPSPVLPDIVMEAPLNSLLPSTGASVAQPSASPLEVPSPVSYDGIKLEPENPPPYEEAMSVALKTSDSKEEIKEPESFNAAAQEAEAPYISIACDLIKETKLSTEPSPEFSNYSEIAKFEKSVPDHCELVDDSSPESEPVDLFSDDSIPEVPQTQEEAVMLMKESLTEVSETVTQHKHKERLSASPQEVGKPYLESFQPNLHITKDAASNEIPTLTKKETISLQMEEFNTAIYSNDDLLSSKEDKMKESETFSDSSPIEIIDEFPTFVSAKDDSPKEYTDLEVSNKSEIANVQSGANSLPCSELPCDLSFKNTYPKDEAHVSDEFSKSRSSVSKVPLLLPNVSALESQIEMGNIVKPKVLTKEAEEKLPSDTEKEDRSLTAVLSAELNKTSVVDLLYWRDIKKTGVVFGASLFLLLSLTVFSIVSVTAYIALALLSVTISFRIYKGVIQAIQKSDEGHPFRAYLESEVAISEELVQKYSNSALGHVNSTIKELRRLFLVDDLVDSLKFAVLMWVFTYVGALFNGLTLLILALISLFSIPVIYERHQAQIDHYLGLANKSVKDAMAKIQAKIPGLKRKAE
B2: Cct8 (protein, UniProt P42932 1-548)
chain: MALHVPKAPGFAQMLKDGAKHFSGLEEAVYRNIQACKELAQTTRTAYGPNGMNKMVINRLEKLFVTNDAATILRELEVQHPAAKMIVMASHMQEQEVGDGTNFVLVFAGALLELAEELLRIGLSVSEVISGYEIACKKAHEILPELVCCSAKNLRDVDEVSSLLRTSIMSKQYGSETFLAKLIAQACVSIFPDSGNFNVDNIRVCKILGSGIYSSSVLHGMVFKKETEGDVTSVKDAKIAVYSCPFDGMITETKGTVLIKTAEELMNFSKGEENLMDAQVKAIAGTGANVIVTGGKVADIALHYANKYNIMLVRLNSKWDLRRLCKTVGATALPKLTPPVQEEMGHCDSVYLSEVGDTQVVVFKHEKEDGAISTIVLRGSTDNLMDDIERAVDDGVNTFKVLTRDKRLVPGGGATEIELAKQITSYGETCPGLEQYAIKKFAEAFEAIPRALAENSGVKANEVISKLYSVHQEGNKNVGLDIEAEVPAVKDMLEASILDTYLGKYWAIKLATNAAVTVLRVDQIIMAKPAGGPKPPSGKKDWDDDQND
B3: α-internexin (protein, UniProt P46660 1-501)
chain: MSFGSEHYLCSASSYRKVFGDSSRLSARLSGPGGSGSFRSQSLSRSNVASTAACSSASSLGLGLAYRRLPASDGLDLSQAAARTNEYKIIRTNEKEQLQGLNDRFAVFIEKVHQLETQNRALEAELAALRQRHAEPSRVGELFQRELRELRAQLEEASSARAQALLERDGLAEEVQRLRARCEEESRGREGAERALKAQQRDVDGATLARLDLEKKVESLLDELAFVRQVHDEEVAELLATLQASSQAAAEVDVAVAKPDLTSALREIRAQYESLAAKNLQSAEEWYKSKFANLNEQAARSTEAIRASREEIHEYRRQLQARTIEIEGLRGANESLERQILELEERHSAEVAGYQDSIGQLESDLRNTKSEMARHLREYQDLLNVKMALDIEIAAYRKLLEGEETRFSTGGLSISGLNPLPNPSYLLPPRILSSTASKVSSAGLSLKKEEEEEEEEASKEVSKKTSKVGEGFEETLGEAVISTKKTGKSATEESTSSSQKM
B4: Stathmin2 (protein, UniProt P55821 1-179)
chain: MAKTAMAYKEKMKELSMLSLICSCFYPEPRNINIYTYDDMEVKQINKRASGQAFELILKPPSPISEAPRTLASPKKKDLSLEEIQKKLEAAEERRKSQEAQVLKQLAEKREHEREVLQKALEENNNFSKMAEEKLILKMEQIKENREANLAAIIERLQEKERHAAEVRRNKELQVELSG
B5: Vat1L (protein, UniProt Q80TB8 1-417)
chain: MAKEGVEKAEETEQMIEKETSKEPAEGGDGSHRLGDAQEMRAVVLAGFGGLNKLRLSRKAMPEPQDGELKIRVKACGLNFIDLMVRQGNIDNPPKTPLVPGFECSGIVEALGDSVKGYEIGDRVMAFVNYNAWAEVVCTPVEFVYKIPDDMSFSEAAAFPMNFVTAYTMLFEIANLREGMSVLVHSAGGGVGQAVAQLCSTVPNVTVFGTASTFKHEAIKDSVTHLFDRNADYVQEVKRISAEGVDIVLDCLCGDNTGKGLSLLKPLGTYILYGSSNMVTGETKSFFSFAKSWWQVEKVNPIKLYEENKVIAGFSLLNLLFKQGRSGLIRGVVEKLIGLYNQKKIKPVVDSLWALEEVKEAMQRIHDRGNIGKLILDVEKTPTPLMANDSTETSEAGEEEEDHEGDSENKERMPFIQ

Biological target: Pants-V5-TurboID fusion protein (Plasticity-Associated Neural Transcript Short, Pants) (mouse (endogenous in Neuro2A))
Test: proximity labelling; Pants-V5-TurboID from the endogenous locus in Neuro2a cells; 50 uM biotin for 18 hours; lysis in RIPA buffer; streptavidin beads; on-bead trypsinization; LC-MS; compared with N2a controls (n = 5 each)

binding, binds:
B1
B2
B3
B4
B5

Biological target: Pants-V5-TurboID fusion protein (Plasticity-Associated Neural Transcript Short, Pants) (mouse (endogenous in Neuro2A))
Test: proximity labelling; separate clonal Pants-Turbo transgenic cell line; biotin labelling; streptavidin capture, elution by boiling in SDS sample buffer with DTT and biotin; Western blot with commercial antibodies to selected hits; N2A controls

binding, binds:
B1
B2
